PubChem BioAssay AID298 (DTP/NCI, 2004)
The list is a part of this screen's results and no random one: it gathers tests that were run many times, whatever their T/C, doses with no T/C, and many T/C values between a quarter and a half above the control. Other doses and runs of a compound stand elsewhere. T/C: endpoint of the treated group in % of that of the vehicle group. Schedules are NCI's codes, taken here to give the interval after Q, in days (D) or hours (H), and the number of doses after X. Some T/C values are followed by the survivors on the day toxicity was checked, most often the fifth; where none is given, no animal had died by that day. Some doses were run more than once; their values stand side by side, smallest first. Some entries give survivors of the animals treated and no T/C: the source files T/C as zero there, which appears to mark a toxic dose or a test without result, not a measured value. Survivors were counted at the toxicity check, usually on the fifth day, unless a day is given; later deaths do not show.

Test system: MX-1 breast xenograft, intrarenal, nude mice, tumor weight
Experiment: NCI In Vivo Anticancer Drug Screen. Data for tumor model Human Mammary Carcinoma MX-1 Xenograft (intrarenal inoculation) in NU/NU BALB/C (nude) mice
Settings: T/C endpoint: mean tumor weight change, higher T/C = larger tumour; for T/C: evaluated on day 11
Outline: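 Transplantable tumors established in mice; animals dosed with compound or vehicle; survival or tumor size then recorded. Result reported as treated (T) divided by vehicle control (C).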

[1] = dose: 400.0 mg/kg/injection, schedule: Q04DX003 (sc), vehicle: saline
[2] = dose: 300.0 mg/kg/injection, schedule: Q04DX003 (ip), vehicle: saline with Tween-80
[3] = dose: 600.0 mg/kg/injection, schedule: Q04DX003 (ip), vehicle: saline with Tween-80
[4] = dose: 1200.0 mg/kg/injection, schedule: Q04DX003 (ip), vehicle: saline with Tween-80
[5] = dose: 800.0 mg/kg/injection, schedule: Q04DX003 (ip), vehicle: saline with Tween-80
[6] = dose: 240.0 mg/kg/injection, schedule: Q04DX003 (ip), vehicle: saline with Tween-80

## Cc1nnc2ncccn12
[1]
  T/C: 131 % of control
dose: 800.0 mg/kg/injection, schedule: Q04DX003 (sc), vehicle: saline
  survivor count: 2 of 6 on day 11

## O=C1[C@@H]2C3C=CC([C@H]4C(=O)N(CO)C(=O)[C@@H]34)[C@@H]2C(=O)N1CO
dose: 400.0 mg/kg/injection, schedule: Q04DX003 (ip), vehicle: Klucel (hydroxypropylcellulose) (HPC)
  survivor count: 0 of 6 on day 11
dose: 800.0 mg/kg/injection, schedule: Q04DX003 (ip), vehicle: Klucel (hydroxypropylcellulose) (HPC)
  survivor count: 0 of 6 on day 11

## C=C1C(O)C2(O)OCC34C(CC5C(C)=CC(=O)C(O)C5(C)C23)OC(=O)C(OC(=O)C/C=C(\C)CCCCC)C14 (stereo unspecified)
dose: 12.5 mg/kg/injection, schedule: Q04DX003 (ip), vehicle: saline + alcohol
  survivor count: 0 of 6 on day 11
dose: 25.0 mg/kg/injection, schedule: Q04DX003 (ip), vehicle: saline + alcohol
  survivor count: 0 of 6 on day 11
dose: 50.0 mg/kg/injection, schedule: Q04DX003 (ip), vehicle: saline + alcohol
  survivor count: 0 of 6 on day 11
dose: 100.0 mg/kg/injection, schedule: Q04DX003 (ip), vehicle: saline + alcohol
  survivor count: 0 of 6 on day 11

## COc1cc(O)c2c(O)c3c(c4c2c1[C@]1(C4)C(C)=CCCC1(C)C)[C@H](O)[C@@]1(O)CC(=O)C(C(N)=O)=C(O)[C@@]1(O)C3=O
dose: 150.0 mg/kg/injection, schedule: Q04DX003 (ip), vehicle: saline with Tween-80
  survivor count: 0 of 6 on day 11
[2]
  survivor count: 0 of 6 on day 11
[3]
  survivor count: 0 of 6 on day 11
[4]
  survivor count: 0 of 6 on day 11

## COC(=O)NC1C(C)OC(OC2C/C=C(/C)C3C=CC4C(OC5CC(OC6CC(O)C(OC7CC(O)C(OC)C(C)O7)C(C)O6)C(O)C(C)O5)C(C)CC(C)C4C3(C)/C(O)=C3\C(=O)OC4(CC(C)C(CO)=CC4/C=C\2C)C3=O)CC1(C)[N+](=O)[O-] (stereo unspecified)
dose: 300.0 mg/kg/injection, schedule: Q04DX003 (ip), vehicle: Klucel (hydroxypropylcellulose) (HPC)
  survivor count: 0 of 6 on day 11
dose: 600.0 mg/kg/injection, schedule: Q04DX003 (ip), vehicle: Klucel (hydroxypropylcellulose) (HPC)
  survivor count: 0 of 6 on day 11

## O=C(CN1CCOCC1)Nc1nc(-c2ccc(Cl)cc2)cs1
dose: 300.0 mg/kg/injection, schedule: Q04DX003 (ip), vehicle: other
  T/C: 138 % of control

## COc1ccc(CC2C(=O)NC(C)C(=O)N(C)C3Cc4ccc(cc4)Oc4cc(ccc4O)CC(C(=O)NC(C)C(=O)NC(C)C(=O)N2C)N(C)C3=O)cc1 (stereo unspecified)
dose: 48.0 mg/kg/injection, schedule: Q04DX003 (sc), vehicle: saline with Tween-80
  survivor count: 0 of 6 on day 11

## COc1cccc2c1C(=O)c1c(O)c3c(c(O)c1C2=O)C[C@@](O)(C(=O)CO)C[C@@H]3OC1CC(N)C(O)C(C)O1 (stereo partly specified)
dose: 16.0 mg/kg/injection, schedule: Q04DX003 (ip), vehicle: water
  survivor count: 0 of 6 on day 11

## NC(=O)C1C=CN(Cc2ccccc2)C=C1
dose: 400.0 mg/kg/injection, schedule: Q04DX003 (ip), vehicle: saline with Tween-80
  survivor count: 0 of 6 on day 11
[5]
  survivor count: 0 of 6 on day 11

## NC1=NC(=O)N2CC12 (stereo unspecified)
[1]
  survivor count: 2 of 6 on day 11

## O=S(=O)(O)C1=CC(=N\Cl)/C=CC/1=N/Cl
[2]
  survivor count: 0 of 6 on day 11
[3]
  survivor count: 0 of 6 on day 11
[4]
  survivor count: 0 of 6 on day 11

## CC1(C)OCC2OC=CC(=O)C2O1 (stereo unspecified)
dose: 1200.0 mg/kg/injection, schedule: Q04DX003 (sc), vehicle: saline
  survivor count: 0 of 6 on day 11

## COc1cccc(Sc2ccc([N+](=O)[O-])c3no[n+]([O-])c23)c1
dose: 30.0 mg/kg/injection, schedule: Q04DX003 (ip), vehicle: saline with Tween-80
  T/C: 126 % of control [5 of 6 alive on day 11]
dose: 60.0 mg/kg/injection, schedule: Q04DX003 (ip), vehicle: saline with Tween-80
  T/C: 23, 53, 63 [5 of 6 alive on day 11], 89, 108 % of control
dose: 120.0 mg/kg/injection, schedule: Q04DX003 (ip), vehicle: saline with Tween-80
  T/C: 7, 47, 79, 105 % of control
[6]
  T/C: 4, 58, 75 % of control [4 of 6 alive on day 11]
  survivor count: 3 of 5 on day 11
dose: 960.0 mg/kg/injection, schedule: Q04DX003 (ip), vehicle: saline with Tween-80
  survivor count: 3 of 6 on day 11

## C[n+]1c(/C=N/NC(N)=S)ccc2ccccc21
dose: 600.0 mg/kg/injection, schedule: Q04DX003 (sc), vehicle: saline with Tween-80
  survivor count: 2 of 6 on day 11
dose: 1200.0 mg/kg/injection, schedule: Q04DX003 (sc), vehicle: saline with Tween-80
  survivor count: 1 of 6 on day 11
dose: 2400.0 mg/kg/injection, schedule: Q04DX003 (sc), vehicle: saline with Tween-80
  survivor count: 1 of 6 on day 11

## CCC(C(=O)O)C(=O)O.[NH2-].[NH2-].[Pt+2]
dose: 300.0 mg/kg/injection, schedule: Q04DX003 (sc), vehicle: saline
  survivor count: 0 of 6 on day 11
dose: 300.0 mg/kg/injection, schedule: Q04DX003 (sc), vehicle: suspension in saline
  survivor count: 0 of 6 on day 11

## N=C(N)c1ccc(Nc2ccc(-c3cc4ccc(C(=N)N)cc4[nH]3)cc2)cc1
dose: 30.0 mg/kg/injection, schedule: Q04DX003 (ip), vehicle: saline
  survivor count: 3 of 6 on day 11

## CC[C@](C)(O)C(=O)O[C@H]1C(=O)O[C@@H]2C[C@H]3C(C)=CC(=O)[C@@H](O)[C@]3(C)[C@H]3[C@@]4(O)OC[C@]32[C@@H]1[C@@H](C)[C@H]4O
dose: 1.0 mg/kg/injection, schedule: Q01DX010 (sc), vehicle: Klucel (hydroxypropylcellulose) (HPC)
  survivor count: 2 of 6 on day 11
dose: 2.0 mg/kg/injection, schedule: Q01DX010 (sc), vehicle: Klucel (hydroxypropylcellulose) (HPC)
  survivor count: 0 of 6 on day 11

## O=C1c2c(O)cccc2-c2nn(CCNCCO)c3ccc(NCCNCCO)c1c23
dose: 22.0 mg/kg/injection, schedule: Q04DX003 (ip), vehicle: water
  survivor count: 1 of 6 on day 11

## CN(C)CCCN=c1c2ccccc2n(C)c2[nH]c(=O)n(C)c(=O)c12
dose: 100.0 mg/kg/injection, schedule: Q04DX003 (ip), vehicle: saline
  survivor count: 0 of 6 on day 11
dose: 200.0 mg/kg/injection, schedule: Q04DX003 (ip), vehicle: saline
  survivor count: 0 of 6 on day 11

## O=NNc1cnccn1
dose: 200.0 mg/kg/injection, schedule: Q04DX003 (ip), vehicle: water
  survivor count: 0 of 6 on day 11

## CN(C)CCNc1ccc(CO)c2sc3ccc(O)cc3c(=O)c12
[5]
  survivor count: 0 of 6 on day 11 and 1 of 6 on day 11

## CCOC(=O)C1=C(C)O/C(=C/c2cccc(Cl)c2)C1=O
[2]
  survivor count: 3 of 5 on day 11
[3]
  survivor count: 0 of 6 on day 11
[4]
  survivor count: 0 of 6 on day 11

## CC1C(c2ccccc2)OC(N2CCOCC2)C(C)(C)CN1C (stereo unspecified)
[4]
  survivor count: 0 of 6 on day 11

## COC(=O)[C@@]12OC[C@]34[C@H]([C@@H](O)[C@@H]1O)[C@@]1(C)CC(=O)C(OC(=O)CC(=O)OC5=C(C)[C@@H]6C[C@H]7OC(=O)[C@H](OC(=O)/C=C(\C)C(C)C)[C@H]8[C@]9(C(=O)OC)OC[C@]78[C@H]([C@@H](O)[C@@H]9O)[C@@]6(C)CC5=O)=C(C)[C@@H]1C[C@H]3OC(=O)[C@H](OC(=O)/C=C(\C)C(C)C)[C@@H]24
dose: 12.5 mg/kg/injection, schedule: Q04DX003 (ip), vehicle: saline + Tween-80 + alcohol
  survivor count: 3 of 6 on day 11
dose: 25.0 mg/kg/injection, schedule: Q04DX003 (ip), vehicle: saline + Tween-80 + alcohol
  survivor count: 2 of 6 on day 11

## O=C1C=CC2OC(c3ccccc3)C(O)C2O1 (stereo unspecified)
dose: 12.5 mg/kg/injection, schedule: Q04DX003 (ip), vehicle: DMSO
  T/C: 134 % of control
dose: 100.0 mg/kg/injection, schedule: Q04DX003 (ip), vehicle: DMSO
  survivor count: 2 of 6 on day 11
